Laboratory results published in patent US20150225369A1, “DDR2 INHIBITORS FOR THE TREATMENT OF OSTEOARTHRITIS” (Merck Patent GmbH, priority 2012, published 2015).
Structures were worked out from names or drawings and are uncertain.

By UniProt entry, the sequences of proteins in these tests, tags left out. Residues count along the entry.
UniProt Q16832, 467-855 limits assumed: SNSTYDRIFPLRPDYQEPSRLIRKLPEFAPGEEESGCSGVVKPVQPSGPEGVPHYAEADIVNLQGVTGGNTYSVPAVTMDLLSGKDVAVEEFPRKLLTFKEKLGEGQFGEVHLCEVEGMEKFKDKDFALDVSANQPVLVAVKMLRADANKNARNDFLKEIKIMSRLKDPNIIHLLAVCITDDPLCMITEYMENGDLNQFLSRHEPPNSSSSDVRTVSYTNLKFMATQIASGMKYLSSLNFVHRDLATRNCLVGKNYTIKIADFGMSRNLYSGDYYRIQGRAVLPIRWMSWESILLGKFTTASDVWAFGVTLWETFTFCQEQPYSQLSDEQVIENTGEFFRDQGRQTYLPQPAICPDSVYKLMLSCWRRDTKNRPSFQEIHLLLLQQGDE
UniProt Q16832, 22-855 limits assumed: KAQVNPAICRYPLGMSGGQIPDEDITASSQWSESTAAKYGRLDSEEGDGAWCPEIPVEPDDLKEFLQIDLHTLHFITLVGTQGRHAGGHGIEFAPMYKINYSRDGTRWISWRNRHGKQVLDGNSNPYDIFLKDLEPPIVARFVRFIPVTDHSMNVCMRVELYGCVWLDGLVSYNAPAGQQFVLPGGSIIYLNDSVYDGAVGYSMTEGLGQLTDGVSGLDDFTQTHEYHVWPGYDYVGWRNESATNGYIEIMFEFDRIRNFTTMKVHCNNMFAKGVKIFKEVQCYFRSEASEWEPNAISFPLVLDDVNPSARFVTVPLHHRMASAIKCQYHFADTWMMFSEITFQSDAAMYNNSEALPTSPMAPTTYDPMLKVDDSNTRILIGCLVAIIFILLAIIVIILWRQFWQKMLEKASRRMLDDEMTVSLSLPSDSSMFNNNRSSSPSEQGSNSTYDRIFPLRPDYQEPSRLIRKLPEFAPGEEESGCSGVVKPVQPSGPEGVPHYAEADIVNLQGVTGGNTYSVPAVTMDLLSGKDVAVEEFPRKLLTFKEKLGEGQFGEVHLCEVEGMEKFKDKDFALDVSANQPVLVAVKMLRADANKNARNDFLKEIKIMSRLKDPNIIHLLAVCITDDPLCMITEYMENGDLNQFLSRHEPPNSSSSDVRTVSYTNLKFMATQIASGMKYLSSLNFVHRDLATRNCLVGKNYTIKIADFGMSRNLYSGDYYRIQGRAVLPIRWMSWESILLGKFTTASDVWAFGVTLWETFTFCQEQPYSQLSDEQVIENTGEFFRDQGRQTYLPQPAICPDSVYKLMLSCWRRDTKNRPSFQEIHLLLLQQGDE

Legend:
[1] = target: His-tagged human recombinant DDR-2 kinase domain (His-TEV-DDR2 467-855 aa) (Homo sapiens, UniProt Q16832); test: Autophosphorylation assay for biochemical activity testing of DDR2 (HTRF); settings: read-out: IC50 [DDR2]
[2] = target: HEK293 transfected with human DDR2 (Homo sapiens, UniProt Q16832); test: Phospho-DDR2 cellular assay (collagen II induced DDR2 phosphorylation, ELISA); format: cell-based; settings: read-out: IC50 [p-DDR2]
Method: Assays were performed in a 384 well plate format, using cell line HEK293 transfected with human DDR2 (PLT460F_(DDR2)-P7-1)
Cells were seeded at a density of 10'000 cells/well in 384well poly-D-lysine coated Black/clear plate (Cellcoat Greiner) and incubated in DMEM medium in the presence of 10% fetal bovine serum at 37° C., 5% CO2 for 48 h. Medium was replaced by serum-free medium and cells were incubated at 37° C., 5% CO2 for 8 h. Compound to be tested in 5% DMSO or 5% DMSO and 50 μg/ml of chicken collagen II were added and cells were incubated at 37° C., 5% CO2 for 16 h
Cells were rinsed with ice-cold PBS, lysed with lysis buffer (M-PER Thermo #78501) for 30 min at room temperature and centrifuged for 1 min at 1000 RPM. In parallel, White High binding 384 well plates (Corning) were coated with mouse anti-human DDR2 capture antibody (R&D Systems kit DuoSet IC Human phospho-DDR2 ELISA), overnight at RT.
An aliquot of cell lysate was transferred to the coated plates and incubated for 2 h at RT. Plates were washed and mouse anti-phospho-tyrosine detection antibody (R&D Systems kit DuoSet IC Human phospho-DDR2 ELISA) conjugated to horse radish peroxidase (HRP) was added for 2 h at RT. Plates were washed and chemiluminescent substrate for HRP (Thermo) was added for 15 min at RT. Luminescence was measured on a luminometer.

Row | Compound | IC50 [1] [nM] | IC50 [2] [nM]
1 | CNC(=O)c1cc(Oc2ccc(CNC(=O)Nc3cc(C(F)(F)F)c(Cl)cc3OCCNC(C)=O)cc2)ccn1 | 61 | 
2 | CNC(=O)c1cc(Oc2ccc(CNC(=O)Nc3cc(C)c(Cl)cc3OCCNC(C)=O)cc2)ccn1 | 300 | 
3 | CNC(=O)c1cc(Oc2ccc(CNC(=O)Nc3cc(C(F)(F)F)ccc3OCCNC(C)=O)cc2)ccn1 | 140 | 
4 | CNC(=O)c1cc(Oc2ccc(CNC(=O)Nc3ccccc3CCO)cc2C)ccn1 |  | 15000
5 | CNCCOc1ccc(S(=O)(=O)C(F)(F)F)cc1NC(=O)NCc1ccc(Oc2ccnc(C(=O)NC)c2)cc1 | 710 | 320
